Data as given in PubChem BioAssay AID652259 (Drosophila RNAi Screening Center, 2013)
The screen tested about 22,000 reagents; this is an unselected part of those that have a named target and a result. Of all reagents, 233 (1.1%) are marked active. 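Light values are raw, unnormalised plate reads; the ratio scores behind the reporter calls were not deposited.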 Reagent sequences are not shown. The record does not give: the amount of reagent, the time to read-out, the dose of the treatment.

Test: 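Knock-downs that push a Wingless-driven reporter up or down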 (primary screen)
Cells: Drosophila clone 8 imaginal disc epithelial cells
Reagents: long dsRNA against Drosophila genes
Challenge: pathway stimulated by co-transfected Wingless expression plasmid
Detection: 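Dual luciferase reads per well after Wingless plasmid stimulation: reporter firefly light and Renilla control light; activity is firefly divided by Renilla, a ratio not deposited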
Direction: firefly reporter light: higher = more Wg reporter light, before normalisation; Renilla control light: higher = more transfected or surviving cells
Active means: 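a knock-down is a candidate when at least two out of four statistical tests show it departing from its plate mean; one test alone signals a weak candidate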
Meaning of the calls: active = candidate regulator (raises or lowers reporter); inactive = not a candidate

CG5568 [DRSC10518]
- firefly reporter light, replicate 1: 8832
- Renilla control light, replicate 1: 3717
- Call: inactive

CG5568 [DRSC22816]
- firefly reporter light, replicate 1: 4.58e5
- firefly reporter light, replicate 2: 5.18e5
- Renilla control light, replicate 1: 1.93e5
- Renilla control light, replicate 2: 2.44e5
- Call: inactive

FANCI [DRSC06416]
- firefly reporter light, replicate 1: 3264
- firefly reporter light, replicate 2: 6171
- Renilla control light, replicate 1: 1063
- Renilla control light, replicate 2: 2769
- Call: inactive

Axud1 [DRSC00270]
- firefly reporter light, replicate 1: 2155
- firefly reporter light, replicate 2: 10134
- Renilla control light, replicate 1: 840
- Renilla control light, replicate 2: 2998
- Call: inactive

mRpS10 [DRSC15557]
- firefly reporter light, replicate 1: 18012
- Renilla control light, replicate 1: 4212
- Call: inactive

Taken from above:
For “Call”, CG5568 [DRSC22816] is entered as inactive
Under “Call”, Axud1 [DRSC00270] has inactive

Next results:
aub [DRSC03486]
- firefly reporter light, replicate 1: 12480
- Renilla control light, replicate 1: 4564
- Call: inactive

CG32846 [DRSC08012]
- firefly reporter light, replicate 1: 2432
- Renilla control light, replicate 1: 1170
- Call: inactive

CG7275 [DRSC10796]
- firefly reporter light, replicate 1: 3744
- Renilla control light, replicate 1: 1824
- Call: inactive

GABPI [DRSC00494]
- firefly reporter light, replicate 1: 7185
- Renilla control light, replicate 1: 3192
- Call: inactive

Trf4-2 [DRSC15237]
- firefly reporter light, replicate 1: 18493
- Renilla control light, replicate 1: 15778
- Call: inactive

RpL12 [DRSC04344]
- firefly reporter light, replicate 1: 2161
- firefly reporter light, replicate 2: 9520
- Renilla control light, replicate 1: 337
- Renilla control light, replicate 2: 2680
- Call: inactive

CG15812 [DRSC08479]
- firefly reporter light, replicate 1: 4604
- Renilla control light, replicate 1: 2308
- Call: inactive
